From US5612455, “Nuclear factors and binding assay” (Tularik, Inc.)

What was measured:
Assay in all cases: EMSA
[1] = target: T1, NFAT3 rel domain (Homo sapiens) (UniProt Q14934); conditions: weak binding; core only printed; purified recombinant protein
T1 sequence: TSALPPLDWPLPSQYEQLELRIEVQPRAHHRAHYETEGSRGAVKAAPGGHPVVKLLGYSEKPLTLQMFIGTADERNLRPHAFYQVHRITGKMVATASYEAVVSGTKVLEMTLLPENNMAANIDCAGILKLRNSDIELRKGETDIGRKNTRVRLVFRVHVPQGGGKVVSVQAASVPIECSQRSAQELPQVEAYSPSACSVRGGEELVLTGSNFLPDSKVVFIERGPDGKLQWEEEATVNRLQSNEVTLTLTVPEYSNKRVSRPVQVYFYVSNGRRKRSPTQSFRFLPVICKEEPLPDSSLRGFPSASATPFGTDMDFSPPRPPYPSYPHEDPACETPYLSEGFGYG

[2] = target: T2, NFATc rel domain (NFATc-309) (Homo sapiens) (UniProt O95644); conditions: weak binding; core only printed; purified recombinant protein
T2 sequence: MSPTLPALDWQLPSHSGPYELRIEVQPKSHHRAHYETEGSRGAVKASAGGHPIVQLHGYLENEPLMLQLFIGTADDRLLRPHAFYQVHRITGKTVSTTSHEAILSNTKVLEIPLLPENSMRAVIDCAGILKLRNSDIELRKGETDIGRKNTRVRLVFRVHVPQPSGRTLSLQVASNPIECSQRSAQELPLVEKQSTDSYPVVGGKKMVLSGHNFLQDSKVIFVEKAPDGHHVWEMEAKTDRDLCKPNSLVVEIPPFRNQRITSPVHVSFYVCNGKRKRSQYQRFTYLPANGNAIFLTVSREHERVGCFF

[3] = target: T3, NFATp rel domain (353 aa, homologous to murine NFATp 185-537) (Homo sapiens) (UniProt Q13469); conditions: weaker than IL-4 site; highest relative affinity of the four NFATs; core only printed; purified recombinant protein
T3 sequence (limits assumed): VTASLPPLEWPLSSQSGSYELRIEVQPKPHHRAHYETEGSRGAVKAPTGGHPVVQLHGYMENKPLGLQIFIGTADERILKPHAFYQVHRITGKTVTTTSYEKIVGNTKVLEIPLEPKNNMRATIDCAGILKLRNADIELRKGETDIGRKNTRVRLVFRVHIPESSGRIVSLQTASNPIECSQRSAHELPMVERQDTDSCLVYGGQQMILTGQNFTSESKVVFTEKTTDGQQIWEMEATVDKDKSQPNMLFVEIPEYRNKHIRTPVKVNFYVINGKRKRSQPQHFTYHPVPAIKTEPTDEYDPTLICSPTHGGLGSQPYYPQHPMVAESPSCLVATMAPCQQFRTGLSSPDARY

[4] = test system: c-Jun/Fra-1 heterodimer (AP-1); conditions: AP-1 alone binds relatively weakly; exact EMSA probe not stated; purified recombinant protein; protein details: E. coli, Fra-1 from pET11

| Sequence | binding result [1] | binding result [2] | binding result [3] | binding result [4] |
| --- | --- | --- | --- | --- |
| GGAAAAACTG (double strand) [IL-2 promoter NFAT site (distal antigen response element)] | binds more weakly | binds more weakly | binds more weakly |  |
| GGAGGAAAAACTGTTTCATACAGAAGGCGT (double strand) [IL-2 NFAT/AP-1 composite element] |  |  |  | binds more weakly |

Weaker means in comparison with the reference protein, sequence or condition of that experiment. For some of these results: Protein sequences can lack the tags named with them.
